In PMC11829042, “Proteasomes accumulate in the plant apoplast where they participate in microbe-associated molecular pattern (MAMP)-triggered pathogen defense” (Nature Communications, 2025) one finds binding data, which are given here for one substance.

These are yes or no findings as the source states them, for the method shown. Binding seen in cells or lysates may run through a third protein. Binding calls can cover weak binding; strength is not graded here. Tags and fused reporters may be left off the sequences shown.

The assay deals with T1, PAG1(α7) CP subunit bearing a C-terminal FLAG tag (Arabidopsis thaliana) (UniProt O23715).
T1 sequence: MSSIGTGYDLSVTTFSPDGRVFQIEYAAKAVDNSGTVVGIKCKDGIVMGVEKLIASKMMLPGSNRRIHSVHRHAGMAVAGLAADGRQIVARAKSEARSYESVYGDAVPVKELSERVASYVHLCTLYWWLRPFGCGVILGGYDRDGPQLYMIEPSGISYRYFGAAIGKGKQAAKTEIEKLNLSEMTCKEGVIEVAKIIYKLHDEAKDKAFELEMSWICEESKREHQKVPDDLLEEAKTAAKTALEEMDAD
Briefly: co-IP; immune-depletion: resuspended APFp from PAG1-FLAG pag1-1 leaves applied three times to anti-FLAG M2 resin at 4 °C in buffer A (50 mM HEPES pH 7.5, 50 mM NaCl, 10% glycerol, 10 mM MgCl2, 20 mM ATP, 2 mM PMSF, 0.6% Na2S2O5); APFp, supernatant and immunoprecipitated fractions immunoblotted.

Take RPN1 RP subunit: the binding result is “binds”.
